The values that follow come from patent US20260183363A1, “INHIBITION OF LUTEINIZING HORMONE (LH) ACTION AS TREATMENT OF PERIMENOPAUSAL AND POSTMENOPAUSAL SYMPTOMS AND COMPLICATIONS” (RIGSHOSPITALET, priority 2022, published 2026).

The chains behind the UniProt entries cited, without tags or fusion partners. Where a name states a change or a piece, a line headed by the entry shows the natural chain unless it says otherwise.
UniProt O09108: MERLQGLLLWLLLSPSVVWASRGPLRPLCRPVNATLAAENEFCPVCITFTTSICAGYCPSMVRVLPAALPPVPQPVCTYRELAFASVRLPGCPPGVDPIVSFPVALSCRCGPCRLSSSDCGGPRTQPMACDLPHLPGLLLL

No constants are given. Whether binding was seen depends on the method and setting. Some results given as binding are weak or reduced against the parent protein; the word gives no strength.

This assay deals with Mouse LH beta recombinant protein fragment, amino acids S21-L141 of SEQ ID NO: 1 (mouse) (UniProt O09108). The assay can be described thus: ELISA screening of hybridomas and subclones raised against the recombinant fragment; also IHC and Western blot, no data given. (In general: ELISA stands for enzyme-linked immunosorbent assay.)

B1: LH targeting antibody (monoclonal mouse antibody against mouse LH beta) (antibody, V domains shown)
VH: QVQLQQSGPELVKPGTSLKLSCKASGYTFTDYVLTWVKQRTGQGLEWIGEIYPGSGSTSYNEKFRGKATLTADKSSNTAYMQLSSLTSEDSAVYFCAHLYYADYDFSYWGQGTLVTVSA
VL: DVLMTQIPLSLVVSLGDQASISCRSSQNIVQSNGNTYLEWYLQKPGQSPKLLIYKVSNRFSGVPDRFSGSGSGTDFTLKISRVEAEDLGVYYCFQGSHVPLTFGAGTKLELKR
Turning to B1, the binding entry was “binds”.
